Results taken from patent publication US20250017915A1, “METHOD OF TREATING CANCER ASSOCIATED WITH RAS MUTATION” (The Board of Trustees of the University of Illinois, priority 2021, published 2025).
At least one structure is not confirmed: it was looked up by name or label, or the drawing left a doubt.

Columns and labels:
Panc1 cells [1] = assay: Cell growth assay (percent confluence); type: cell-based, human; settings: Panc1, 1 μM each drug, until DMSO-treated cells reached 100% confluence
Description: (§1) For cell growth assays, a fixed number of serum starved tumor cells were seeded into each well of a 24 well plate to reach 10% confluence, the subsequent percent confluence evaluated every 4 hours until the control group reached 100% confluence. For cell viability assays, 2,000-4,000 cells were seeded into each well of a 96-well plate in serum free DMEM. After 16 hours, media/drug was added and cells cultured for 72 hours. At this time, we added 20 ul of a 5 mg/ml 3-(4,5-Dimethyl-2-thiazolyl)-2,5-diphenyl-2H-tetrazolium bromide (MTT) solution to each well […]. After two hours, media was aspirated and crystals dissolved in DMSO and 570 nm absorbance determined by plate reader.

Panc1 cells [2] = assay: Cell viability, MTT assay; type: cell-based, human; settings: Panc1, increasing concentrations, with or without 1 μM SGC-CBP30, 48 hours
Description: as §1
After 48 hours, we examined changes in cell viability via MTT assay.

Panc1 cells [3] = assay: RNA sequencing and gene set enrichment analysis; type: cell-based, human; settings: Panc1, 1 μM, RNA sequencing
Description: After 24 hours RNA was extracted using the RNeasy Plus Mini Kit (Qiagen, Hilden, Germany) per the manufacturer's instructions. Quality control, sequencing, and data analysis were performed by Novogene.

KRAS mRNA in Panc1 cells = assay: KRAS mRNA by qPCR, Panc1; type: cell-based, human; settings: Panc1, 1 μM, 6 hours
[4] = system: KRAS mRNA in MiaPaCa2 cells; assay: KRAS mRNA by qPCR, MiaPaCa2; type: cell-based, human; settings: MiaPaCa2, 1 μM
KRAS mRNA in ASPC1 cells = assay: KRAS mRNA by qPCR, ASPC1; type: cell-based, human; settings: ASPC1, 1 μM
BRD4 and EP300/CBP = assay: Immunoprecipitation of BRD4 and EP300/CBP, Panc1; type: cell-based, human; settings: Panc1, 1 μM
Description: For immunoprecipitation, cell lysates were collected using IP buffer (25 mM Tris-HCl pH 7.5, 150 mM NaCl, 1 mM EDTA, 0.1% NP-40 and 5% glycerol) with a protease and phosphatase inhibitory cocktail (Cell Signaling), and cell extracts were incubated overnight with the respective antibodies followed by incubation with protein A or G agarose beads for 4 h at 4° C. After washing 5-7 times with lysis buffer, immunocomplexes were resolved using SDS-PAGE and visualized by western blot. All antibodies were compared with isotype specific IgG controls to affirm specificity. All experiments were performed in triplicate unless otherwise specified.
(§2) Using these same lysates, we also evaluated the association between BRD4 and EP300/CBP by immunoprecipitation.

Panc1 cells [5] = assay: Western blot, Panc1; type: cell-based, human
Description: Cell or tissue lysates were lysed in RIPA buffer (Cell Signaling) followed by sonication. Equal amounts of protein (15-50 μg) were mixed with loading dye, boiled for 8 min, separated on a 4-20% denaturing SDS-PAGE gel and transferred to a PVDF membrane. The membrane was blocked in 5% milk/TBS/0.1% Tween for one hour and incubated with antibodies against pRB, pMEK1, MEK1, pERK1/2, ERK1/2, (Cell Signaling, Danvers, MA), H3K27ac (Active Motif, Carlsbad, CA), KRAS (Novus Bio, Saint Charles, MO), BRD4, EP300 (abcam, Cambridge, MA), or GAPDH (Santa Cruz Biotech, Santa Cruz, CA). The membrane was washed with TBS-0.1% Tween and then incubated with HRP conjugated secondary antibody (Cell Signaling) at room temperature for one hour and rewashed. Protein bands were visualized by an enhanced chemiluminescence method (Thermo Fischer, Waltham, MA) and resolved digitally per the manufacturer's specifications.
as §2

[6] = system: KPC-105 murine PDAC cell line; assay: Western blot, KPC-105; type: cell-based; settings: KPC-105, western blot
[7] = system: human PDAC slice cultures; assay: Primary PDAC slice cultures ex vivo, immunohistochemistry; type: cell-based; settings: 5 μM, 72 hours
[8] = system: Ptf1a-Cre×LSL-Kras^G12D (KC) mice; assay: Chemoprevention study in KC mice (PanIN model); type: in vivo, mouse
[9] = system: Pdx1-Cre×LSL-Kras^G12D×LSL-TP53^R172H+/− (KPC) mice; assay: KPC mouse model of invasive PDAC, survival and endpoint tissue analysis; type: in vivo
Source text: (§3) Nongenic B6 (Wild Type), P48-Cre×LSL-Kras^G12D (KC), Pdx1-Cre×LSL-Kras^G12D×LSL-TP53^R172H+/− (KPC), and Pdx1-Cre×LSL-Kras^G12D×LSL-TP53^R172H+/+ (KPPC) mice were generated as described previously (24). […] Mice were euthanized at 6 months of age and tissues collected for analysis. […] KPC mice were sacrificed when moribund or showing clear signs of health decline e.g. fur loss, weight loss, or lethargy, or for non-survival studies at the fixed endpoint shown in the number of days after enrollment. For studies involving KPPC mice, animals were enrolled either when developing a 0.5 cm, palpable tumor or at 4 weeks of age. […] For euthanasia, animals were deeply anesthetized with isoflurane until unresponsive to toe tap and/or agonal breathing was observed. Thoracotomy served as the primary method of euthanasia and exsanguination the secondary method. For all mouse studies, mice were age matched within 2 weeks and males and females randomized at a 50:50 ratio.
Using these mice, we first conducted an early intervention study in which mice were allowed to develop overt PDAC for a minimum of 15 weeks, at which point 100% of mice in our colony develop focal PDAC. At this time, mice were then randomized at a 50:50 male to female ratio into one of two treatment groups (N=7/group). […] Tissues were collected at the study endpoint, sectioned, and stained either with H&E, trichrome, or immunohistochemistry for pERK.
KPC mice were again allowed to develop overt PDAC for a minimum of 14 weeks and randomized at a 50:50 male to female ratio into one of two treatment groups (N=7/group).

[10] = system: Pdx1-Cre×LSL-Kras^G12D×LSL-TP53^R172H+/+ (KPPC) mice; assay: KPPC mouse model of extremely aggressive PDAC, late intervention; type: in vivo; settings: study endpoint
Source text: as §3
We next conducted a late intervention study using the Pdx1-Cre×LSL-Kras^G12D×LSL-TP53^R172H+/+ (KPPC) model of extremely aggressive PDAC. In our colony, KPPC mice have a median survival of 43 days (N=12) and develop extensive PDAC as early as two weeks of age. We, therefore, enrolled mice as described either when they developed a 0.5 cm tumor or at 4 weeks of age and placed them into one of two treatment groups (N=6/group).

[11] = system: Pdx1-Cre×LSL-Kras^G12D×LSL-TP53^R172H+/− (KPC) mice; assay: KPC mice treated two months, flow cytometry of tumor and spleen; type: in vivo, mouse

CCS(=O)(=O)Nc1cc(-c2cn(C)c3c(=O)[nH]ccc23)cc2c1ccn2C(C)(c1ccccn1)c1ccccn1 [XP-524]
cell growth (Panc1 cells [1]): highly effective at suppressing tumor cell growth
cell viability (Panc1 cells [2]): more effective at lower concentrations
TGFβ pathway (Panc1 cells [3]): pronounced suppression
antigen processing/presentation pathway (Panc1 cells [3]): upregulation of the antigen processing/presentation pathway
KRAS transcription (KRAS mRNA in Panc1 cells): highly significant reduction in KRAS transcription
KRAS transcription [4]: also observed
KRAS transcription (KRAS mRNA in ASPC1 cells): also observed
co-precipitation of BRD4 and EP300/CBP (BRD4 and EP300/CBP): nearly absent
histone acetylation (H3K27ac) (Panc1 cells [5]): not observed
phosphorylated RB (Panc1 cells [5]): reductions in phosphorylated RB
KRAS expression and downstream MEK/ERK activation [6]: significant XP-524-induced suppression of KRAS expression and inhibition of downstream MEK/ERK activation
cell proliferation in CK19+ tumor epithelial cells [7]: significantly reduced
ERK activation ([7]; slices from 3 patients): significantly reduced ERK activation
expression of the mutant RAS protein by IHC ([8]; 5 mg/kg daily IP): substantial reduction in expression of the mutant RAS protein
weight of the pancreas ([8]; 5 mg/kg daily IP from 8 weeks, endpoint 6 months): consistent reduction in the weight of the pancreas
ERK activation and cell proliferation ([8]; 5 mg/kg daily IP, IHC): reductions in ERK activation and cell proliferation
lesion burden and fibrosis ([8]; 5 mg/kg daily IP, histology): significant reduction in lesion burden and fibrosis
normal acinar tissue ([8]; 5 mg/kg daily IP, histology): increased preservation of normal acinar tissue
KRAS expression and MEK/ERK signals by western blotting ([8]; 5 mg/kg daily IP, pancreas lysate): consistent reduction in KRAS expression, as well as downstream activation of MEK/ERK signals
MHC Class 1 staining ([9]; IHC): increased surface staining for MHC Class 1
apoptosis ([9]; study endpoint): uniform increases in apoptosis
cell proliferation ([9]; study endpoint): parallel reductions in cell proliferation
ERK activation ([9]; study endpoint, IHC): substantially reduced ERK activation
GranzymeB staining ([9]; tumor IHC): stained negatively
T-cell exhaustion marker PD-1 on infiltrating T-cells ([9]; tumor IHC): largely positive for the T-cell exhaustion marker PD-1
TGFβ1 by ELISA ([9]; tumor tissue and serum): reduced intratumoral and serum levels of TGFβ1
ERK activation [10]: significant decrease in ERK activation
apoptosis [10]: subsequent increase in apoptosis
tumor stroma [10]: modest reduction in tumor stroma
CD4+ and CD8+ T-cells in the spleen ([11]; spleen): no significant difference observed in the spleen
splenic Tregs ([11]; spleen): not observed in the spleen
CD45+CD11b+GR-1+ macrophage infiltration ([11]; tumor): no consistent increase
IFNγ in intratumoral CD8+ T-cells ([11]; tumor): negative for the activation surrogate IFNγ
PD-1 on CD4+ and CD8+ T-cells ([11]; tumor): largely positive for PD-1
intratumoral CD4+CD25+FoxP3+ regulatory T-cells ([11]; tumor): significant reduction in the relative abundance
M2 marker CD206 ([11]; tumor macrophages): modest decrease in expression of the M2 surrogate CD206
tumor infiltration of CD4+ and CD8+ T-cells ([11]; tumor, flow cytometry): significant increase in the infiltration of both CD4+ and CD8+ T-cells
